Experimental data: PubChem BioAssay AID2685 (National Center for Advancing Translational Sciences (NCATS), 2010)
The list shows a part of the results. Further columns of the screen follow, without active or inactive calls. Most of these compounds were active or inconclusive in the main read-out, so they are no random draw. Words in brackets tell the shape of the fitted curve; partial curves, single points and poor fits give uncertain potencies.

Assay: qHTS Assay for Lipid Storage Modulators in Drosophila S3 Cells;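 on cell number change: cells counted by Cell Tracker Red CMTPX staining in the red channel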
Conditions: BODIPY lipid droplet fluorescence, 18-24 h; for cell number change: measured here: cell count max response, cells fed with added oleic acid
How it was run: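 Drosophila S3 cells got compounds at several concentrations plus oleic acid (400 uM solution). Laser-scanning cytometry with 488 nm excitation read lipid droplets at 500-530 nm and cells at 575-640 nm. Percent activity was relative to 20 uM Triacsin C.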

[1] = measured here: lipid fluorescence (Fed channel) AC50, cells fed with added oleic acid
[2] = measured here: cell number channel AC50, cells fed with added oleic acid

Q: With `CC1=NN(c2ccc(C(=O)O)cc2)C(=O)/C1=C\c1ccc(OC(=O)c2cccs2)cc1` as the compound, how does the cell number change read?
A: 44.4%

Q: Which results are given for `CN1C(=O)c2cccc(NC(=O)C3CCCCC3)c2C1=O`?
A: cell number change: 3.62%; AC50 [1]: 1.03 µM [rising, full curve, poor fit]

Q: Which cell number change does the source give for `CN1C(=O)N(CC(=O)Nc2cccc(S(=O)(=O)N(C)c3ccccc3)c2)C(=O)C12CCCCC2` here?
A: 225%

Q: And the AC50 [2]?
A: 29.1 µM [rising, single point]

Q: Which results are given for `O=Cc1c(-[n+]2ccccc2)nc([O-])n1-c1ccccc1`?
A: cell number change: -57.3%; AC50 [2]: 11.6 µM [falling, partial curve]; AC50 [1]: 29.1 µM [falling, single point]

Q: For `Cn1ccnc1Sc1nc(Nc2cccc(Cl)c2)nc(N2CCOCC2)n1`, which cell number change is on record?
A: -6.41%

Q: And the AC50 [1]?
A: 18.4 µM [falling, partial curve, poor fit]

Q: Which cell number change does the source give for `Cc1ccc(Nc2c([N+](=O)[O-])cc(C(=O)N3CC(=O)Nc4ccccc43)cc2[N+](=O)[O-])c(C)c1` here?
A: -28.8%

Q: And the AC50 [1]?
A: 20.6 µM [falling, single point]

Q: With `C[C@@H]1C[C@H]2[C@@H]3C[C@H](F)C4=CC(=O)C=C[C@]4(C)[C@@]3(F)[C@@H](O)C[C@]2(C)[C@@]1(O)C(=O)COC(=O)C(C)(C)C` as the compound, how does the cell number change read?
A: -37.9%

Q: And the AC50 [2]?
A: 5.17 µM [falling, partial curve]

Q: And the AC50 [1]?
A: 5.8 µM [falling, partial curve]

Q: With `Cc1ccc(OCC(=O)Nc2ccc(C)c(F)c2)c([N+](=O)[O-])n1` as the compound, how does the cell number change read?
A: 28.5%

Q: For `COCCN(CC(=O)Nc1cc(Cl)ccc1-n1cncn1)Cc1nc2ccccc2c(=O)[nH]1`, which cell number change is on record?
A: -5.76%

Q: Which results are given for `Cc1c(/C=N/NC(=O)c2ccc(Br)o2)cnn1C`?
A: cell number change: -42.5%; AC50 [2]: 29.1 µM [falling, single point]; AC50 [1]: 29.1 µM [falling, single point]

Q: For `COc1cc(CNc2ccc(N3CCN(C(C)=O)CC3)cc2)ccc1OCc1ccccc1`, which cell number change is on record?
A: 19.1%

Q: And the AC50 [1]?
A: 0.082 µM [falling, full curve, poor fit]

Q: For `CC1(C)CC(=O)C2=C(C1)N=c1s/c(=C/c3ccc(F)c(F)c3)c(=O)n1C2c1ccc(F)cc1` (configuration not stated), which cell number change is on record?
A: -104%

Q: And the AC50 [2]?
A: 20.6 µM [falling, partial curve]

Q: What about the AC50 [1] of the same compound?
A: 29.1 µM [falling, single point]

Q: Which cell number change does the source give for `O=C(NC1CCN(C(=O)NCc2ccccc2)CC1)c1ccc(F)cc1` here?
A: 18.5%

Q: What about the AC50 [1] of the same compound?
A: 2.91 µM [rising, single point]

Q: With `O=C(NCCc1ccccc1)C1CCN(S(=O)(=O)c2ccc(-c3nn[nH]n3)cc2)CC1` as the compound, how does the cell number change read?
A: -15.9%

Q: What about the AC50 [1] of the same compound?
A: 3.66 µM [falling, full curve]

Q: For `CCOc1ccc2nc(SCC(=O)Nc3cc4c(cc3C(C)=O)OCO4)[nH]c2c1`, which cell number change is on record?
A: -20.5%

Q: And the AC50 [1]?
A: 25.9 µM [falling, single point]

Q: Which cell number change does the source give for `CNC(=O)COC(=O)c1cccnc1SC` here?
A: 13.1%

Q: Which cell number change does the source give for `O=c1[nH]c(Nc2ccc3c(c2)OCCO3)nnc1Cc1ccccc1` here?
A: 30.2%

Q: What about the AC50 [2] of the same compound?
A: 2.31 µM [rising, full curve, poor fit]

Q: What about the AC50 [1] of the same compound?
A: 0.731 µM [rising, single point]

Q: Which cell number change does the source give for `O=C(O)C1CCCCC1C(=O)Nc1nc(-c2ccc(Cl)s2)cs1` (configuration not stated) here?
A: 8.2%

Q: And the AC50 [1]?
A: 0.00461 µM [rising, full curve, poor fit]

Q: Which cell number change does the source give for `CCC(C)(C)NC(=O)C(c1cccnc1)N(C(=O)c1csnn1)c1ccccc1` (configuration not stated) here?
A: 10.4%

Q: Which results are given for `O=C(N/N=C/c1ccccc1)c1sccc1OCc1ccc(F)cc1`?
A: cell number change: -15.2%; AC50 [1]: 29.1 µM [falling, single point]

Q: For `CN(C)S(=O)(=O)Oc1ccc(C(=O)Nc2cccc(C(F)(F)F)c2)cc1`, which cell number change is on record?
A: -36.2%

Q: And the AC50 [1]?
A: 0.116 µM [falling, full curve, poor fit]

Q: Which results are given for `CCCCCCC1C(C#N)=C(N)OC2=C1C(=O)CC(C)(C)C2` (configuration not stated)?
A: cell number change: -35.9%; AC50 [2]: 18.4 µM [falling, partial curve]; AC50 [1]: 14.6 µM [falling, partial curve]

Q: For `COc1cc(NC(=O)c2cccs2)c(C(=O)OCC(=O)NC(=O)NC(C)(C)C)cc1OC`, which AC50 [2] is on record?
A: 1.84 µM [rising, partial curve]

Q: What about the AC50 [1] of the same compound?
A: 0.092 µM [rising, full curve, poor fit]

Q: What does the source list for `O=c1c(Cl)cc(Cl)nn1-c1ccccc1`?
A: cell number change: -13.1%; AC50 [1]: 6.51 µM [falling, full curve]

Q: Which results are given for `Fc1ccccc1/C=N/Nc1nc2ccccc2o1`?
A: cell number change: 3.52%; AC50 [1]: 6.51 µM [falling, single point]

Q: Which AC50 [2] does the source give for `CCOc1nc(-c2ccc(Cl)cc2)nc2ccccc12` here?
A: 6.51 µM [falling, single point]

Q: And the AC50 [1]?
A: 6.51 µM [falling, single point]

Q: For `O=S(=O)(NC1=NCCCCC1)c1ccc(F)cc1`, which cell number change is on record?
A: 18.7%

Q: What does the source list for `O=C(c1ccco1)N1CCN(C(=O)c2ccc(Cn3cc(Br)cn3)o2)CC1`?
A: cell number change: -4.16%; AC50 [1]: 4.11 µM [rising, full curve]

Q: What does the source list for `CCOC(=O)C1CCCN(S(=O)(=O)c2ccc(S(N)(=O)=O)cc2)C1` (configuration not stated)?
A: cell number change: 2.03%; AC50 [1]: 0.0103 µM [rising, full curve, poor fit]

Q: Which cell number change does the source give for `Cc1ccc(C)c(NC(=O)C2CCCN(S(=O)(=O)c3c(C)noc3/C=C/N(C)C)C2)c1` (configuration not stated) here?
A: 5.9%

Q: What about the AC50 [1] of the same compound?
A: 29.1 µM [rising, single point]

Q: With `CC1CCN(c2c(NCC3CCC(C(=O)NCCc4ccc(Cl)cc4)CC3)c(=O)c2=O)CC1` (configuration not stated) as the compound, how does the cell number change read?
A: 28.9%

Q: And the AC50 [2]?
A: 0.184 µM [rising, full curve, poor fit]

Q: And the AC50 [1]?
A: 0.206 µM [rising, full curve]

Q: Which results are given for `CCOc1cc(CNCc2ccncc2)cc(Br)c1OCc1ccccc1F`?
A: cell number change: -53.9%; AC50 [2]: 25.9 µM [falling, single point]; AC50 [1]: 1.16 µM [falling, partial curve, poor fit]

Q: Which AC50 [1] does the source give for `CNC(=O)c1csc(-c2ccncc2)n1` here?
A: 2.06 µM [rising, partial curve]

Q: What does the source list for `CCCc1nnc(SCC(=O)Nc2nc(C)cs2)n1CCOC`?
A: cell number change: 12.5%; AC50 [1]: 0.116 µM [rising, single point]

Q: For `Cc1ccc(S(=O)(=O)N2CCN(C(=O)COC(=O)/C=C/c3ccccc3[N+](=O)[O-])CC2)c(C)c1`, which cell number change is on record?
A: 17.5%

Q: For `COc1ccc(N2C(=O)C3CCCN3C2c2ccc(C)cc2)cc1` (configuration not stated), which cell number change is on record?
A: -12.7%

Q: And the AC50 [1]?
A: 0.0651 µM [falling, full curve, poor fit]
